# Results from one PubChem assay

Source: PubChem BioAssay AID1080 (Emory University Molecular Libraries Screening Center, 2008).

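A counter-screen in EP4-overexpressing cells measuring cyclic AMP with a time-resolved FRET kit under weak PGE2 stimulation.
Compounds were tested at 20 µM final. A low (about EC15) PGE2 dose was present.
Percent cAMP induction as a fraction of the 1 µM PGE2 response, averaged over three replicates; a higher value means more cAMP.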

Values are in %.
Common to all entries: measured here: EP4 receptor counter-screen.
This is a side read-out of the assay, for part of the compounds, not drawn at random.

| SMILES | setting | cAMP induction (%) |
|---|---|---|
| `CCOC(=O)c1c(NC(=O)c2ccoc2C)sc(C)c1C` | percent of 1 uM PGE2 response; plus low (about EC15) PGE2 agonist | 7.74 |
| `O=C(c1ccc(Cl)cc1)c1oc2ccccc2c1CS(=O)c1ccc(Cl)cc1` (centres undefined) | percent of 1 uM PGE2 response; plus low (about EC15) PGE2 agonist | 2.89 |
| `CCn1c(=S)[nH]c2c(c1=O)C(C)(C)Cc1ccccc1-2` | percent of 1 uM PGE2 response; plus low (about EC15) PGE2 agonist | 63.33 |
| `COc1ccc(C2=Nn3c(nnc3-c3ccc(OC)cc3)SC2)cc1` | percent of 1 uM PGE2 response; plus low (about EC15) PGE2 agonist | -3.87 |
| `O=C(OCc1ccccc1Cl)c1ccccc1C(=O)c1ccccc1` | percent of 1 uM PGE2 response; plus low (about EC15) PGE2 agonist | 4.44 |
| `COc1ccccc1-c1nnc(SCC(=O)c2ccc(C3CCCCC3)cc2)n1Cc1ccco1` | percent of 1 uM PGE2 response; plus low (about EC15) PGE2 agonist | -12.95 |
| `COc1ccc2c(c1)c(=O)c(Br)c(C)n2Cc1ccccc1` | percent of 1 uM PGE2 response; plus low (about EC15) PGE2 agonist | -5.863 |
| `CCOP(=O)(OCC)c1nc(-c2ccc(Cl)cc2Cl)oc1N1CCCCC1` | percent of 1 uM PGE2 response; plus low (about EC15) PGE2 agonist | -14.97 |
| `Clc1ccc(COn2c(-c3ccccc3)nc3ccccc32)cc1` | percent of 1 uM PGE2 response; plus low (about EC15) PGE2 agonist | 5.717 |
| `COc1cc(O)c2c(=O)cc(C)oc2c1CC=C(C)C` | percent of 1 uM PGE2 response; plus low (about EC15) PGE2 agonist | -3.143 |
| `O=C(c1ccccc1)C1CN(Cc2ccccc2)CCC1(O)c1ccccc1` (centres undefined) | percent of 1 uM PGE2 response; plus low (about EC15) PGE2 agonist | 10.67 |
| `C(=N\N1CCN(C2c3ccccc3-c3ccccc32)CC1)/c1cccnc1` | percent of 1 uM PGE2 response; plus low (about EC15) PGE2 agonist | 6.647 |
| `c1ccc(-c2noc(-c3ccccc3-c3ccccc3)n2)cc1` | percent of 1 uM PGE2 response; plus low (about EC15) PGE2 agonist | 9.44 |
| `CC(C)Sc1nc2sc3c(c2c2nnc(SCC(=O)NCc4ccco4)n12)CCCC3` | percent of 1 uM PGE2 response; plus low (about EC15) PGE2 agonist | -15.3 |
| `O=C(c1ccco1)N1N=C(c2ccc(Br)cc2)CC1(O)C(F)(F)F` (centres undefined) | percent of 1 uM PGE2 response; plus low (about EC15) PGE2 agonist | -5 |
| `CCC(=O)O[C@H]1CCC2C3CCC4=CC(=O)CC[C@]4(C)C3CC[C@@]21C` (some centres undefined) | - | -13.73 |
| `CN(C)c1oc(-c2ccccc2Cl)nc1P(=O)(c1ccccc1)c1ccccc1` | percent of 1 uM PGE2 response; plus low (about EC15) PGE2 agonist | -12 |
| `Cc1ccc(-c2csc(N(CC3CCCO3)C(=O)c3ccco3)n2)cc1` (centres undefined) | percent of 1 uM PGE2 response; plus low (about EC15) PGE2 agonist | -6.16 |
| `N#CCSc1nc2ccccc2c(=O)n1C1CCCCC1` | percent of 1 uM PGE2 response; plus low (about EC15) PGE2 agonist | -3.18 |
| `c1ccc(C2Nc3ccccc3Oc3ccccc32)cc1` (centres undefined) | percent of 1 uM PGE2 response; plus low (about EC15) PGE2 agonist | -8.28 |
| `CCCn1c(Nc2nc3ccccc3n2C)nc2ccccc21` | percent of 1 uM PGE2 response; plus low (about EC15) PGE2 agonist | -13.78 |
| `Cc1ccc(-c2nc3ccccc3nc2Cl)cc1` | percent of 1 uM PGE2 response; plus low (about EC15) PGE2 agonist | 17.22 |
| `O=C(COc1ccccc1)Nc1ccccc1Oc1ccccc1` | percent of 1 uM PGE2 response; plus low (about EC15) PGE2 agonist | 14.7 |
| `C=CCSc1nc2ccccc2n1S(=O)(=O)c1ccc(Cl)cc1` | percent of 1 uM PGE2 response; plus low (about EC15) PGE2 agonist | 12.26 |
| `Cc1ccc(CSc2ncnc3c2cnn3Cc2ccccc2)cc1C` | percent of 1 uM PGE2 response; plus low (about EC15) PGE2 agonist | -5.507 |

Some entries from above, unchanged:

SMILES,setting,cAMP induction (%)
CCOP(=O)(OCC)c1nc(-c2ccc(Cl)cc2Cl)oc1N1CCCCC1,percent of 1 uM PGE2 response; plus low (about EC15) PGE2 agonist,-14.97
O=C(COc1ccccc1)Nc1ccccc1Oc1ccccc1,percent of 1 uM PGE2 response; plus low (about EC15) PGE2 agonist,14.7
CCCn1c(Nc2nc3ccccc3n2C)nc2ccccc21,percent of 1 uM PGE2 response; plus low (about EC15) PGE2 agonist,-13.78